Source: the supplement of paper PMC3682954
Values joined by “and” are separate entries in the source; they are usually repeats but may differ in a detail not shown here. Equal entries are not always repeated. Structures can show the parent of a compound that is named as a salt. ± gives the standard deviation of the averaged measurements. The list shows a part of the results. Most values come without repeats; read them as rough.

Test system: RAW 264.7
Test: cell viability (MTT) relative to vehicle control; higher = more viable cells
Settings: stimulus: HMGB1 5 ug/ml, 18 h
[1] = compound concentration: 1 ug/ml

Row | Structure (SMILES) | cell viability (compound concentration: 3 uM) | cell viability [1] [%]
1 | CC(=O)Nc1nnc(S(N)(=O)=O)s1 [Acetazolamide] | 106 ± 2.3% | 
2 | CC(=O)Nc1nnc(S(N)(=O)=O)s1 | 111% | 
3 | Cc1cc2cc3c(C)cc(=O)oc3c(C)c2o1 | 110% | 
4 | Cc1cc2cc3c(C)cc(=O)oc3c(C)c2o1 [Trioxsalen] | 113% | 
5 | CC(=O)Nc1c(I)cc(I)c(C(=O)O)c1I | 107% | 
6 | Clc1ccc2nsnc2c1NC1=NCCN1 [Tizanidine] | 89.2% | 
7 | Clc1ccc2nsnc2c1NC1=NCCN1 [Tizanidine HCl] | 114% | 
8 | Clc1ccc2nsnc2c1NC1=NCCN1 [Tizanidine hydrochloride] | 131% | 
9 | CCCCCCNC(=O)n1cc(F)c(=O)[nH]c1=O | 102 ± 4.1% | 
10 | CCC[C@@H]1C[C@@H](C(=O)N[C@@H]([C@H]2O[C@H](SC)[C@H](OP(=O)(O)O)[C@@H](O)[C@H]2O)[C@H](C)Cl)N(C)C1 [Clindamycin Phosphate] | 105% | 
11 | CCC[C@@H]1C[C@@H](C(=O)N[C@@H]([C@H]2O[C@H](SC)[C@H](OP(=O)(O)O)[C@@H](O)[C@H]2O)[C@H](C)Cl)N(C)C1 [clindamycin 2-phosphate] |  | 108
12 | CCCOc1ccccc1-c1nc2[nH]nnc2c(=O)[nH]1 | 109% | 
13 | CCCOc1ccccc1-c1nc2[nH]nnc2c(=O)[nH]1 [Zaprinast] | 98.8 ± 5.7% | 
14 | COC(=O)C1=CO[C@@H](O)[C@@H]2C(CO)=CC[C@H]12 [Genipin] | 112% | 108
15 | CC#C[C@]1(O)CC[C@H]2[C@@H]3CCC4=CC(=O)CCC4=C3[C@@H](c3ccc(N(C)C)cc3)C[C@@]21C | 101% | 
16 | CC#C[C@]1(O)CC[C@H]2[C@@H]3CCC4=CC(=O)CCC4=C3[C@@H](c3ccc(N(C)C)cc3)C[C@@]21C [Mifepristone] | 107 ± 14% | 
17 | COc1cc(SC)ccc1C(=O)N1CCC(Cc2ccccc2)CC1 | 105% | 
18 | CC(C)=CCC1=C(O)C(=O)c2ccccc2C1=O | 87% | 
19 | Nc1nc(=O)n([C@@H]2CS[C@H](CO)O2)cc1F [Emtricitabine] | 103% | 
20 | COc1ccc(Cl)cc1C(=O)NCCc1ccc(S(=O)(=O)NC(=O)NC2CCCCC2)cc1 [Glibenclamide] | 106% | 
21 | COc1ccc(Cl)cc1C(=O)NCCc1ccc(S(=O)(=O)NC(=O)NC2CCCCC2)cc1 | 102% | 

Row | Structure (SMILES) | cell viability (compound concentration: 3 uM) | cell viability [1] [%]
22 | COc1ccc(Cl)cc1C(=O)NCCc1ccc(S(=O)(=O)NC(=O)NC2CCCCC2)cc1 [Glyburide] | 108% | 
23 | COc1ccc(Cl)cc1C(=O)NCCc1ccc(S(=O)(=O)NC(=O)NC2CCCCC2)cc1 [Glybenclamide] | 103% | 
24 | O=c1ccn([C@@H]2O[C@H](COP(=O)(O)OP(=O)(O)O)[C@@H](O)[C@H]2O)c(=O)[nH]1 [Uridine 5'-diphosphate sodium] | 117% | 
25 | CC(C(O)c1ccc(O)cc1)N1CCC(Cc2ccccc2)CC1 (centres undefined) | 115% | 
26 | CC(C(O)c1ccc(O)cc1)N1CCC(Cc2ccccc2)CC1 (centres undefined) [Ifenprodil] | 102 ± 4.8% | 
27 | CC(C(O)c1ccc(O)cc1)N1CCC(Cc2ccccc2)CC1 (centres undefined) [Ifenprodil tartrate] | 103 ± 10% | 
28 | C[C@@H]1C/C=C/C=C/C=C/C=C/[C@H](O[C@@H]2O[C@H](C)[C@@H](O)[C@H](N)[C@@H]2O)C[C@@H]2O[C@](O)(C[C@@H](O)C[C@H]3O[C@@H]3/C=C/C(=O)O1)C[C@H](O)[C@H]2C(=O)O | 107% | 
29 | O=C(O)C1=CC(=C(c2ccc(O)c(C(=O)O)c2)c2ccc(O)c(C(=O)O)c2)C=CC1=O [Aurintricarboxylic acid] | 99.3% | 
30 | NC(C(=O)O)C(O)C(=O)O (racemic) [DL-threo-beta-hydroxyaspartic acid] | 114% | 
31 | CCCn1c(=O)c(C)cn2nc(N)nc12 | 109% | 
32 | Cc1cc(C)nc(NS(=O)(=O)c2ccc(N)cc2)n1 [Sulfamethazine sodium salt] | 141% | 
33 | Cc1cc(C)nc(NS(=O)(=O)c2ccc(N)cc2)n1 | 101% | 
34 | COc1cc(NS(=O)(=O)c2ccc(N)cc2)ncn1 [Sulfamonomethoxine] | 116% | 
35 | COc1cc(NS(=O)(=O)c2ccc(N)cc2)ncn1 | 111% | 
36 | CC1(C)O[C@@H]2C[C@H]3[C@@H]4C[C@H](F)C5=CC(=O)C=C[C@]5(C)[C@@]4(F)[C@@H](O)C[C@]3(C)[C@]2(C(=O)CO)O1 | 115% | 
37 | CC1(C)O[C@@H]2C[C@H]3[C@@H]4C[C@H](F)C5=CC(=O)C=C[C@]5(C)[C@@]4(F)[C@@H](O)C[C@]3(C)[C@]2(C(=O)CO)O1 [Fluocinolone acetonide] | 105 ± 1.4% | 
38 | COC(=O)N/N=C/c1c[n+]([O-])c2ccccc2[n+]1[O-] [Carbadox] | 96.7 ± 2% | 
39 | COC(=O)N/N=C/c1c[n+]([O-])c2ccccc2[n+]1[O-] | 105% | 
40 | CN(C(=O)CN(CCO)CC(=O)N(C)C(C)(C)Cc1ccccc1)C(C)(C)Cc1ccccc1 | 97.7% | 
41 | CN(C(=O)CN(CCO)CC(=O)N(C)C(C)(C)Cc1ccccc1)C(C)(C)Cc1ccccc1 [Oxethazaine] | 114% | 
42 | Cn1cc(C(F)(F)F)nc1-c1ccc(OCC(O)CNCCOc2ccc(O)c(C(N)=O)c2)cc1 (centres undefined) | 112% | 

Row | Structure (SMILES) | cell viability (compound concentration: 3 uM) | cell viability [1] [%]
43 | CN1CCN2c3ncccc3Cc3ccccc3C2C1 (centres undefined) | 98.8% | 
44 | CN1CCN2c3ncccc3Cc3ccccc3C2C1 (centres undefined) [Mirtazapine] | 81.3% | 
45 | CC(C)[C@H](N)C(=O)OCCOCn1cnc2c(=O)nc(N)[nH]c21 | 98.1% and 107% | 
46 | CC(C)[C@H](N)C(=O)OCCOCn1cnc2c(=O)nc(N)[nH]c21 [Valaciclovir] | 101% | 
47 | CCOC(=O)/C=C(C)/C=C/C=C(C)/C=C/c1c(C)cc(OC)c(C)c1C [Etretinate] | 117 ± 4.5% | 
48 | CCOC(=O)Nc1nc2ccccc2[nH]1 | 108% | 
49 | C=C/C(C)=C/[C@@]1(C)SC(=O)C(C)=C1O [Thiolactomycin] | 102% | 
50 | COc1ccc2c(c1)c(CC(=O)O)c(C)n2C(=O)c1ccccc1 [1-benzoyl-5-methoxy-2-methylindole-3-acetic acid] | 116% | 
51 | Nc1nc2c(cnn2CCc2ccccc2)c2nc(-c3ccco3)nn12 | 109% | 
52 | OC[C@H]1O[C@@H](n2cnc3c(Cl)ncnc32)[C@H](O)[C@@H]1O [6-Chloropurine riboside] |  | 90.4
53 | Cc1c(N)c(=O)n(-c2ccccc2)n1C [Ampyrone] | 103% | 
54 | COc1ccc(CC(=O)c2c(O)cc(O)cc2O)cc1O |  | 90.1
55 | C=CCOc1ccccc1OCC(O)CNC(C)C (centres undefined) [Oxprenolol hydrochloride] | 90.9% | 
56 | COc1cc(-c2cc(=O)c3ccccc3o2)ccc1O |  | 94.3
57 | NC[C@H]1O[C@H](O[C@H]2[C@H](O)[C@@H](O[C@H]3O[C@H](CO)[C@@H](O)[C@H](N)[C@H]3O)[C@H](N)C[C@@H]2N)[C@H](N)C[C@@H]1O | 104 ± 7.9% | 
58 | NC[C@H]1O[C@H](O[C@H]2[C@H](O)[C@@H](O[C@H]3O[C@H](CO)[C@@H](O)[C@H](N)[C@H]3O)[C@H](N)C[C@@H]2N)[C@H](N)C[C@@H]1O [Tobramycin (free base)] | 104% | 
59 | NC[C@H]1O[C@H](O[C@H]2[C@H](O)[C@@H](O[C@H]3O[C@H](CO)[C@@H](O)[C@H](N)[C@H]3O)[C@H](N)C[C@@H]2N)[C@H](N)C[C@@H]1O [Tobramycin] | 92.9% | 
60 | C[C@@H]1C[C@H]2[C@@H]3CCC4=CC(=O)C=C[C@]4(C)[C@@]3(F)[C@@H](O)C[C@]2(C)[C@H]1C(=O)CO | 108% | 
61 | CCN(CC)CCOCCOC(=O)C1(c2ccccc2)CCCC1 | 118% | 
62 | CCN(CC)CCOCCOC(=O)C1(c2ccccc2)CCCC1 [Carbetapentane citrate] | 100.8 ± 0.96% | 
63 | O=C(c1cc(O)c(O)c([N+](=O)[O-])c1)c1ccccc1F | 123% | 

Exported with tabs: part of the list above.
Row	Structure (SMILES)	cell viability (compound concentration: 3 uM)	cell viability [1] [%]
50	COc1ccc2c(c1)c(CC(=O)O)c(C)n2C(=O)c1ccccc1 [1-benzoyl-5-methoxy-2-methylindole-3-acetic acid]	116%	
51	Nc1nc2c(cnn2CCc2ccccc2)c2nc(-c3ccco3)nn12	109%	
52	OC[C@H]1O[C@@H](n2cnc3c(Cl)ncnc32)[C@H](O)[C@@H]1O [6-Chloropurine riboside]		90.4
53	Cc1c(N)c(=O)n(-c2ccccc2)n1C [Ampyrone]	103%	
54	COc1ccc(CC(=O)c2c(O)cc(O)cc2O)cc1O		90.1
55	C=CCOc1ccccc1OCC(O)CNC(C)C (centres undefined) [Oxprenolol hydrochloride]	90.9%	

The listing continues.

Row | Structure (SMILES) | cell viability (compound concentration: 3 uM) | cell viability [1] [%]
64 | O=P(O)(O)C(O)(Cn1ccnc1)P(=O)(O)O [Zoledronic acid] | 93.7% | 
65 | CCN(CCCCOC(=O)c1ccc(OC)c(OC)c1)C(C)Cc1ccc(OC)cc1 (centres undefined) [Mebeverine hydrochloride] | 102% | 
66 | CCN(CCCCOC(=O)c1ccc(OC)c(OC)c1)C(C)Cc1ccc(OC)cc1 (centres undefined) | 112% | 
67 | CCN(CC)C(=O)C1(c2ccccc2)CC1CN (centres undefined) [Milnacipran] | 94.8% | 
68 | Cc1cc(C(C)(C)C)cc(C)c1CC1=NCCN1 [Xylometazoline hydrochloride] | 109.9 ± 0.37% | 
69 | Cc1cc(C(C)(C)C)cc(C)c1CC1=NCCN1 | 102% | 
70 | CC(C)(CO)[C@@H](O)C(=O)NCCC(=O)O [PANTOTHENIC ACID(d) Na salt] | 107% | 
71 | CC(C)(CO)[C@@H](O)C(=O)NCCC(=O)O [Pantothenic acid] | 89.8% | 
72 | O=c1[nH]ccc2c(O)cccc12 [1,5-Isoquinolinediol] | 98.7% | 
73 | COc1cc2nc(N3CCN(C(=O)C4COc5ccccc5O4)CC3)nc(N)c2cc1OC (centres undefined) [Doxazosin] | 103% | 
74 | COc1cc2nc(N3CCN(C(=O)C4COc5ccccc5O4)CC3)nc(N)c2cc1OC (centres undefined) | 92.8% | 
75 | COc1cc2nc(N3CCN(C(=O)C4COc5ccccc5O4)CC3)nc(N)c2cc1OC (centres undefined) [Doxazosin mesylate] | 90.8 ± 1.9% | 
76 | CC(=O)Nc1ccc(OC(=O)c2ccccc2O)cc1 | 110% | 
77 | O=c1c(O)c(-c2ccc(O)cc2)oc2cc(O)cc(O)c12 [Kaempferol] |  | 93.6
78 | N[C@H]1CONC1=O [(S)-(-)-Cycloserine] | 96.9% | 
79 | N[C@H]1CONC1=O [L-Cycloserine] | 96.4% | 
80 | CCCCC1C(=O)N(c2ccccc2)N(c2ccc(O)cc2)C1=O (centres undefined) | 106% | 
81 | CCCCC1C(=O)N(c2ccccc2)N(c2ccc(O)cc2)C1=O (centres undefined) [Oxyphenbutazone] | 88.6% | 
82 | O=C(CCBr)N1CCN(C(=O)CCBr)CC1 | 113 ± 20% | 
83 | CCN(CC)C(=O)Nc1ccc(OCC(O)CNC(C)(C)C)c(C(C)=O)c1 (centres undefined) [Celiprolol HCl] | 101% | 
